From patent US6228602A, “Competitive apo-peroxidase assay” (Bayer Corporation, priority 1999, dated 2001)
At least one structure is not confirmed: it was looked up by name or label, or the drawing left a doubt.

Molecular target: T1, apo-POD (Armoracia rusticana, UniProt P00433)
T1 construct: purchased Sigma Chemical Company, St. Louis, Mo
T1 sequence (P00433 31-353): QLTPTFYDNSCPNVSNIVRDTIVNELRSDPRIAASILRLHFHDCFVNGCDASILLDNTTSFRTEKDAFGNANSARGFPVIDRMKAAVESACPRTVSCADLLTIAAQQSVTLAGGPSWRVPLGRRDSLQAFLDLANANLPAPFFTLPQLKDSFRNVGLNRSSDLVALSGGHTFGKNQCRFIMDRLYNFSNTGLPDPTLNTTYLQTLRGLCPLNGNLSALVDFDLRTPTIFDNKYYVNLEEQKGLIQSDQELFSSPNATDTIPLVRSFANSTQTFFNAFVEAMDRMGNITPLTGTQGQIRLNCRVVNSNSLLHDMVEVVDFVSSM
Test: Interference study with peroxidase detecting dry reagent (Example III)
Type: biochemical, horse radish
Conditions: hemoglobin/myoglobin: reagent without modification; ascorbate: system with ascorbate scavenger
Procedure: In this example, a peroxidase detecting dry reagent with resistance to 0.81 mg/dL hemoglobin (or myoglobin) and 25 mg/dL ascorbate and sufficient sensitivity to detect apo-peroxidase reactivation was used. […]
The reagent was tested by dipping it into solutions containing the interfering substance with and without Fe hematin. […]

O=C1O[C@H]([C@@H](O)CO)C(O)=C1O [Ascorbate]
interference with peroxidase detecting reagent (in words): does not cause a false negative response
